# Data published in US20070110833A1, “Composition comprising the alcohol compound isolated from the extract of cucurbitaceae family plant having anti-adipogenic and anti-obesity activity” (priority 2003, published 2007).
# At least one compound was matched to its structure with a doubt left.
# System: 3T3-L1 cell
# Test: Inhibition of adipocyte (3T3-L1) differentiation and triglyceride accumulation, Oil Red O staining
# Format: cell-based
structure (smiles),measurement,setting,value
"Cc1c(C)c2c(c(C)c1O)CCC(C)(COc1ccc(CC3SC(=O)NC3=O)cc1)O2 (centres unmarked) [troglitazone, Troglitazone]",adipocyte differentiation and triglyceride accumulation,"Experimental Example 1-3, cmc-9 and controls, FIG. 5",the triglyceride was more reproduced
same,level of produced triglycerides in differentiated 3T3-L1 cells (Oil Red O),"MDI-induced differentiation, 8 days, extracts 1 mg/ml, SB203580 10 uM, FIGS. 1 and 2",the triglyceride was more produced
